AC50 data for 15 compounds are collected here from PubChem BioAssay AID1487 (National Center for Advancing Translational Sciences (NCATS), 2009).

The assay is described as follows: qHTS Assay for Modulators of Lamin A Splicing. Particulars: HeLa LMNA splicing GFP/RFP minigene ratio, 48 h. Put shortly:
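S3 HeLa cells stably expressing lamin A-EGFP splicing minigene plus DsRed2, 600 cells/well, 48 h compound exposure at 37C. Laser-scanning cytometry; analysed as GFP (500-530 nm)/RFP (575-640 nm) total intensity ratio; 0.5% DMSO vehicle.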
Background: qHTS replaces the single test concentration by a dilution series.

Setting [1] is: measured here: GFP splicing reporter channel.
The mark [2] stands for this setting: measured here: RFP viability control channel.

In general, AC50 refers to the midpoint of the concentration-response curve, whichever way the signal moves.

Some of the results follow. Further columns of the screen follow, without active or inactive calls. Compounds called inactive in the main read-out are mostly missing here. Words in brackets tell the shape of the fitted curve; partial curves, single points and poor fits give uncertain potencies.

Turning to `CCOC(=O)CN(Cc1ccccc1)S(=O)(=O)c1ccc(NC(C)=O)cc1`, the AC50 reads like this: under setting [1], 35.5 µM [rising, single point]; under setting [2], 35.5 µM [rising, single point].

For `Cc1ccc(O)c(NC(=O)C2CC(c3c(F)cccc3Cl)=NO2)c1` (stereo not drawn), the AC50 reads like this: under setting [1], 14.1 µM [rising, partial curve]; under setting [2], 35.5 µM [rising, single point].

As to `CCN1C(=O)/C(=C2/Sc3ccc(OC)cc3N2C)SC1=Nc1ccc(OC)cc1`, the concentration at half-maximal activity (AC50) under setting [1] is 0.398 µM [rising, full curve, poor fit].

Turning to `COC(=O)c1ccc(C(=O)OC)c(NC(=O)CSc2cccc[n+]2[O-])c1`, the half-maximal activity concentration (AC50) under setting [1] is 6.31 µM [falling, full curve] and the AC50 under setting [2] is 7.08 µM [falling, full curve].

For the compound `CCN(CC)c1ccc2cc(-c3nnc(-c4ccccc4)o3)c(=O)oc2c1`, under setting [2], the AC50 was 2.51 µM [falling, single point].

For the compound `Cn1nc(C(F)(F)F)c(C#N)c1N1CCN(c2ccccc2F)CC1`, the AC50 runs as follows: under setting [1], 15.8 µM [rising, single point]; under setting [2], 35.5 µM [rising, single point].

Regarding `CCOc1ccc(C(=O)c2nc3c(n2O)CCCC3)cc1`, the AC50 under setting [1] was 1 µM [rising, partial curve, poor fit].

Consider `COc1ccc(CCNC(=O)C2CCN(Cc3nc(-c4cccc(Cl)c4)oc3C)CC2)cc1OC`, for which the AC50 is 15.8 µM [rising, partial curve] under setting [1] and 25.1 µM [rising, single point] under setting [2].

With `Oc1ccccc1CNCCCNCc1ccccc1O`, under setting [1], the AC50 was 25.1 µM [rising, single point].

For `COc1ccc(C(=O)c2cc([N+](=O)[O-])ccc2N2CCCC2)cc1`, the AC50 runs as follows: under setting [1], 15.8 µM [rising, single point]; under setting [2], 14.1 µM [rising, partial curve].

As for `Cc1ccc(CNS(=O)(=O)c2ccc3c(c2)OCCO3)cc1`, under setting [2], the half-maximal activity concentration (AC50) was 22.4 µM [rising, single point].

On to `COc1cc(C(c2c(C)[nH][nH]c2=O)c2c(C)[nH][nH]c2=O)ccc1OS(=O)(=O)c1ccccc1`, for which the AC50 under setting [2] is 6.31 µM [falling, single point].

`Cc1nc(NC(=O)c2ccc(Cl)cc2)sc1Cc1ccc2c(c1)OCO2`: the AC50 reads like this: under setting [1], 7.08 µM [rising, full curve, poor fit]; under setting [2], 5.01 µM [rising, full curve].

Regarding `CC(/C=N/n1c(-c2ccc(C)cc2)n[nH]c1=S)=C\c1ccco1`, the AC50 under setting [2] was 22.4 µM [rising, partial curve].

Consider `COc1cccc(CNCCc2c[nH]c3ccccc23)c1OCc1ccccc1F`, for which the AC50 reads like this: under setting [1], 3.16 µM [falling, single point]; under setting [2], 5.62 µM [falling, single point].
